The list shows a part of the results.
Compound: Cc1cc(ccc1-c1ccccc1)C(=O)N1CCCN(CC1)C(=O)CCl [compound 10]
Assay: probe-labelled cysteine peptide fold change vs DMSO (competition) (log2 fold change); higher = less target engagement (more negative = stronger competition)
Conditions: THP-1, incubation time: 4 h
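Note: competitive profiling in live THP-1 cells: cysteine peptides tagged with an iodoacetamide desthiobiotin (IA-DTB) probe, intensity after compound treatment relative to DMSO-treated cells.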

By UniProt entry, the sequences of proteins in these tests, tags left out. Where a name states a change or a piece, a line headed by the entry shows the natural chain unless it says otherwise.
UniProt P06753, whole entry, looked up: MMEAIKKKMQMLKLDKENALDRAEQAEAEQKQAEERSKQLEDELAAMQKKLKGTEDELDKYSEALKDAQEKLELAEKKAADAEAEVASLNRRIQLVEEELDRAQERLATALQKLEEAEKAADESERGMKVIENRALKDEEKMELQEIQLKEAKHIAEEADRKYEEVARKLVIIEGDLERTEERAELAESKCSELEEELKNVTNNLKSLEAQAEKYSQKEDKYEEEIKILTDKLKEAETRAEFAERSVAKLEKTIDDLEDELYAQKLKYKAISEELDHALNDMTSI
UniProt Q15785: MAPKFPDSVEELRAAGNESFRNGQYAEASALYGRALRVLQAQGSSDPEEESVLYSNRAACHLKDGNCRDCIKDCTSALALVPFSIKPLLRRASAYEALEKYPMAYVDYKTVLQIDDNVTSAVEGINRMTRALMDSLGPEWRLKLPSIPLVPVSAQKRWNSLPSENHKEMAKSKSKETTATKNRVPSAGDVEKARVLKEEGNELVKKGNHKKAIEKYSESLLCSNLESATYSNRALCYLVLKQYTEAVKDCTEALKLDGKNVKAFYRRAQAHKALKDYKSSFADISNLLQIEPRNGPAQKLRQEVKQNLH
UniProt Q68CZ2: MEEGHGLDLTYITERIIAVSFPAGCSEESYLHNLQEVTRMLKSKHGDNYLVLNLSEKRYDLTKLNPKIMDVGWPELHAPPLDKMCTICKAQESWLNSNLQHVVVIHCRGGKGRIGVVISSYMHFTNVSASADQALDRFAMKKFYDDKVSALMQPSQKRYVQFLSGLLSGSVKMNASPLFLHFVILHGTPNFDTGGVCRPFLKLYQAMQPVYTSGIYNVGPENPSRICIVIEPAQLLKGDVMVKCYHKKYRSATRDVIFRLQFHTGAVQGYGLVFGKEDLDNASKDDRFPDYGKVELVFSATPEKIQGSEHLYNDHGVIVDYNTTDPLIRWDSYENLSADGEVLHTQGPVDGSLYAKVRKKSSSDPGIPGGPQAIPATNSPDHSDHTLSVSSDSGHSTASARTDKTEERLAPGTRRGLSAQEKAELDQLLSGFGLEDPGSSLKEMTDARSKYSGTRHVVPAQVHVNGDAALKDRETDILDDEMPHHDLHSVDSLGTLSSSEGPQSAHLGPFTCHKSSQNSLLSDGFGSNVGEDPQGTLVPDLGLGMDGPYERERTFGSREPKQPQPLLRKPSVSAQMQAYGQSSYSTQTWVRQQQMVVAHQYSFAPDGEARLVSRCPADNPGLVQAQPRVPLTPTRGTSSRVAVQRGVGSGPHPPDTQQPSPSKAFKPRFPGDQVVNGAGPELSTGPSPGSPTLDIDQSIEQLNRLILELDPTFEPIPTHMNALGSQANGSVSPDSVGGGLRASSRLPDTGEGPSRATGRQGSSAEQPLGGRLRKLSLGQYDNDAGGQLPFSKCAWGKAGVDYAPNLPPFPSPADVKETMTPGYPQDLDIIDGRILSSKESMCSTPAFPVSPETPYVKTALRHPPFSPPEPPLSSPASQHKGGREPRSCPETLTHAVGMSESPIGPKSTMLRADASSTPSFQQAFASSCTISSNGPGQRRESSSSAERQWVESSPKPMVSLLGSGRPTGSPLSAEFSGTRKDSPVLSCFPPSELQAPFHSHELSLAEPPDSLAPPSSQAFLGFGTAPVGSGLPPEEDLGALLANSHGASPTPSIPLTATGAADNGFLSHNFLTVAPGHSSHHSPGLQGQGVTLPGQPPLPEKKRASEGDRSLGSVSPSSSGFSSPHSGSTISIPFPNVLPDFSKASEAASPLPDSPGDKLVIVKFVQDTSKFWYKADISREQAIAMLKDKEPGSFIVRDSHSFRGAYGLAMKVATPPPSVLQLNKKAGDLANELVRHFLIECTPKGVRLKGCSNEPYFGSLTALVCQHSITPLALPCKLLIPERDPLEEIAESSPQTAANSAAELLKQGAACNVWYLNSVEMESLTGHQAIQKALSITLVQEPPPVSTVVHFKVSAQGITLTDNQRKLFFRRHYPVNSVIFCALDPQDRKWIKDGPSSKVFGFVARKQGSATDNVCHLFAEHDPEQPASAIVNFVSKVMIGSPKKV
UniProt Q03169: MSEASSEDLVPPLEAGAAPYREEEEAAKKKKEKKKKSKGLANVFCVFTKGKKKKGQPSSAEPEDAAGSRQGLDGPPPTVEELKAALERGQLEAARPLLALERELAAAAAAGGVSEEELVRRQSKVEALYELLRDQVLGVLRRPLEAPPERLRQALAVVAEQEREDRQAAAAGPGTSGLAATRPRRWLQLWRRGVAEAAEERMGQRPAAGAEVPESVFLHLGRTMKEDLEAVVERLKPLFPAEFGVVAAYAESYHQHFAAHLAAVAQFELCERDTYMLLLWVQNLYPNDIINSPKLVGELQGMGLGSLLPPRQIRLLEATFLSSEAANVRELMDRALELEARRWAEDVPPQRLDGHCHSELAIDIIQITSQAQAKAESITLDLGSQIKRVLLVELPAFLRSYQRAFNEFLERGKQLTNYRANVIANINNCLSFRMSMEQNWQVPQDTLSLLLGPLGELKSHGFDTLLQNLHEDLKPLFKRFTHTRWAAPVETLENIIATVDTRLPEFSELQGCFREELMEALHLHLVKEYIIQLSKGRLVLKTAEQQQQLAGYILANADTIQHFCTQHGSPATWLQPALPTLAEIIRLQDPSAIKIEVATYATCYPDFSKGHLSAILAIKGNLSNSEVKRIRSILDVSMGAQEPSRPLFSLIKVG
UniProt Q8IUX1: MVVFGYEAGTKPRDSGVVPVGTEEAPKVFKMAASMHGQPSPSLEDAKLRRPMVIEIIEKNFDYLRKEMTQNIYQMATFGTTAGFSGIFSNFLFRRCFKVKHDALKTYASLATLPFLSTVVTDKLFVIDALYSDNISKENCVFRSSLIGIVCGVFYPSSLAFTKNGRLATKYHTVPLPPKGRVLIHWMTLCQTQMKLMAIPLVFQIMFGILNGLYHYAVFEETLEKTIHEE
UniProt P82094: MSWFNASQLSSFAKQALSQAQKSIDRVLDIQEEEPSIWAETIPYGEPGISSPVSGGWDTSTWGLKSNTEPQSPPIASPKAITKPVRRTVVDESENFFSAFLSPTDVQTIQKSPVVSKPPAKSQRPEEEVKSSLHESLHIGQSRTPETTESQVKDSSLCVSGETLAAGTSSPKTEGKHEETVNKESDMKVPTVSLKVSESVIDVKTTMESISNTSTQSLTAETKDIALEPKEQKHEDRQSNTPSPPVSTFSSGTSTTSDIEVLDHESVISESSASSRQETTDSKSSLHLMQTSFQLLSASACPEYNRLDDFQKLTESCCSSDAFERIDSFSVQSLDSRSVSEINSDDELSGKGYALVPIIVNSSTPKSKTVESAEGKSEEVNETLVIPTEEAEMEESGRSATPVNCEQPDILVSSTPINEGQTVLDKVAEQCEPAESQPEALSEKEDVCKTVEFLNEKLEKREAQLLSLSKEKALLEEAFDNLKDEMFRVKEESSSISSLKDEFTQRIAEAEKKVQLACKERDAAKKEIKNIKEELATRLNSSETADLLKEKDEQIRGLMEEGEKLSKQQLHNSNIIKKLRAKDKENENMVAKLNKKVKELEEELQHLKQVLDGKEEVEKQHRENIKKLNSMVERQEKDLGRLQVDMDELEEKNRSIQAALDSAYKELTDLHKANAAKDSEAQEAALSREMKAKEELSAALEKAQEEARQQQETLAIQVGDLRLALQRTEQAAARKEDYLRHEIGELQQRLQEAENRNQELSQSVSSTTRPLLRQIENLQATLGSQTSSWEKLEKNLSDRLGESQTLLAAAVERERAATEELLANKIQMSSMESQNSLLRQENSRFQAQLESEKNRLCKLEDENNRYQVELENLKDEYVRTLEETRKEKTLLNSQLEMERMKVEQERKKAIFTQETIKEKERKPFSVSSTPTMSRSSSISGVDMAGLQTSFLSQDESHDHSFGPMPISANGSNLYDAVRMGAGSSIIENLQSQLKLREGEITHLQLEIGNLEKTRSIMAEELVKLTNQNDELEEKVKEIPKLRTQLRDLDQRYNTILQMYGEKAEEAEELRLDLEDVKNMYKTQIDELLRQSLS
UniProt Q9Y490: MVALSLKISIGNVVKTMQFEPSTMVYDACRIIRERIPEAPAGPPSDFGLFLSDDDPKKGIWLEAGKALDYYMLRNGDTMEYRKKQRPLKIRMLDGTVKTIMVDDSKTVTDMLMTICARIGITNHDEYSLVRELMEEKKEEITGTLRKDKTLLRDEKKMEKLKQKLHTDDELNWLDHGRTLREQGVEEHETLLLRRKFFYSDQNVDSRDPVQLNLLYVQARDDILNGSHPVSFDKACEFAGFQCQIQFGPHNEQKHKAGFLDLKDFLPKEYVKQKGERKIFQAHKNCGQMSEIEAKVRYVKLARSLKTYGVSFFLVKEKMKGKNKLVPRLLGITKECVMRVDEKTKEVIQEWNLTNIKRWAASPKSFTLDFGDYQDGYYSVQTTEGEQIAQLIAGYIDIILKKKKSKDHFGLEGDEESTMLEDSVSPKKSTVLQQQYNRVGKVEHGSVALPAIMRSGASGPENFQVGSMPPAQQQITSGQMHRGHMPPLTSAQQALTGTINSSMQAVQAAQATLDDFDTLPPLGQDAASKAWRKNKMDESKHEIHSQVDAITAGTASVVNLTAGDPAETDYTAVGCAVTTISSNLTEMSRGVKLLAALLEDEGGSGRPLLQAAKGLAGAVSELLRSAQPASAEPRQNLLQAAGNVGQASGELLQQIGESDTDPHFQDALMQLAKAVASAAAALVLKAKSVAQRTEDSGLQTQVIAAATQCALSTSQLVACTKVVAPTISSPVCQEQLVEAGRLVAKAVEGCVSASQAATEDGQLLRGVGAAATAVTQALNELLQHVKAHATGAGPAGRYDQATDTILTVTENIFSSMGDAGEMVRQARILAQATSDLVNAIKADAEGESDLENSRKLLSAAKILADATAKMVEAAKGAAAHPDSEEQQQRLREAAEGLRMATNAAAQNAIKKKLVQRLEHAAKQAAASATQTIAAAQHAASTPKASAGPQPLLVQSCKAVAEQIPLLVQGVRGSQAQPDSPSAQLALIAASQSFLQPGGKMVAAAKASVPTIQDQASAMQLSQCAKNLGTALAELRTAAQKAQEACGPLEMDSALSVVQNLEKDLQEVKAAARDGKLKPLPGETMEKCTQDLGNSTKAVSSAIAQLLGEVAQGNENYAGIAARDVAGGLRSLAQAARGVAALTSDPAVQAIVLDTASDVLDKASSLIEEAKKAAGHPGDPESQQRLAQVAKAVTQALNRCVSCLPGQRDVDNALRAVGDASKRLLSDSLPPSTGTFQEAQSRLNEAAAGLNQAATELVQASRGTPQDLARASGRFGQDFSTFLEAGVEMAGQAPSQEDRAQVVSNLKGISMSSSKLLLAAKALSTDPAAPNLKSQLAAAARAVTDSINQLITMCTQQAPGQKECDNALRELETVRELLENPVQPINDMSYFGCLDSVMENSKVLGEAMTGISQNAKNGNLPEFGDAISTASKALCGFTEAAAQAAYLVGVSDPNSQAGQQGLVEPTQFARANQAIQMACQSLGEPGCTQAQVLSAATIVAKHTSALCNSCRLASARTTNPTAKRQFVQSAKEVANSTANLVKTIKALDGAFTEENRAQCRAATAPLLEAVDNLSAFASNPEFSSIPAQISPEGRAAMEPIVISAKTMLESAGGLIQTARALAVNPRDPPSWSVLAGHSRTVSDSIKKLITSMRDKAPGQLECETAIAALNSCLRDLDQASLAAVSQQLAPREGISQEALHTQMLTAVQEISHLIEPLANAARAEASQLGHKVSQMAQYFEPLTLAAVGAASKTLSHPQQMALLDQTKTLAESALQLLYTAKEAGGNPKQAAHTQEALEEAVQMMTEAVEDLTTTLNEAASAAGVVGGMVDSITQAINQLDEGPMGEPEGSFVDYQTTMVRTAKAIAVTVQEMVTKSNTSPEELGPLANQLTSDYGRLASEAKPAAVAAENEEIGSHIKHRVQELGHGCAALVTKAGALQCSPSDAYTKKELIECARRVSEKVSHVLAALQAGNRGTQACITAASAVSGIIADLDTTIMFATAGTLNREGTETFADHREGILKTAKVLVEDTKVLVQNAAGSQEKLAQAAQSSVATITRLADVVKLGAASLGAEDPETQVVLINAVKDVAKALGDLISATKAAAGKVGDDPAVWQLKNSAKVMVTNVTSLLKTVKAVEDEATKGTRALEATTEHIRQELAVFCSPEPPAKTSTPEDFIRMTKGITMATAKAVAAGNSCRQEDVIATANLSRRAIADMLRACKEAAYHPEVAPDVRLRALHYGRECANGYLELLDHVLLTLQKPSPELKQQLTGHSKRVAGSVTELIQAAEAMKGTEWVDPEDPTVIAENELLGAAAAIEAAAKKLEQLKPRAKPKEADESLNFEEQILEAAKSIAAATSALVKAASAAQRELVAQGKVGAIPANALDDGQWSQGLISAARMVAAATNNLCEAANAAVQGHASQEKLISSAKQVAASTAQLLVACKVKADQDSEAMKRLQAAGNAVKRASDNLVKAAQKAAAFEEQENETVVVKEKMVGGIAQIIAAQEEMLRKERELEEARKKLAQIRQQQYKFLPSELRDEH

| Target | probe-labelled cysteine peptide fold change (10 µM) | probe-labelled cysteine peptide fold change (50 µM) |
| --- | --- | --- |
| TPM3_P06753-2_233_EEHLCTQR (UniProt P06753) | 0.027 | -0.363 |
| TOMM34_Q15785_250_DCTEALK (UniProt Q15785) | 0.155 | -0.128 |
| TOP3B_O95985_819_HAASCHPMHR (UniProt O95985) | -0.00957 | -0.372 |
| TNS3_Q68CZ2_615_CPADNPGLVQAQPR (UniProt Q68CZ2) | -0.159 | -0.576 |
| TMEM173_Q86WV6_12_PHSSLHPSIPCPR (UniProt Q86WV6) | 0.0393 | -0.625 |
| TNFAIP2_Q03169_356_LDGHCHSELAIDIIQITSQAQAK (UniProt Q03169) | -0.0614 | -0.0762 |
| TMEM126B_Q8IUX1_151_SSLIGIVCGVFYPSSLAFTK (UniProt Q8IUX1) | -0.506 | 0.449 |
| TNFAIP2_Q03169_429_ANVIANINNCLSFR (UniProt Q03169) | -0.0434 | 0.184 |
| TNS3_Q68CZ2_1381_HYPVNSVIFCALDPQDRK (UniProt Q68CZ2) | -0.0299 | -0.121 |
| TLN2_Q9Y4G6_1204_AVSHSLNNCVNCLPGQK (UniProt Q9Y4G6) | 0.0961 | -0.0817 |
| TMF1_P82094_518_VQLACK (UniProt P82094) | -0.035 | 0.0261 |
| TOP1_P11387_504_AGNEKEEGETADTVGCCSLR (UniProt P11387) | -0.0614 | -1.22 |
| TLN1_Q9Y490_29_TMQFEPSTMVYDACR (UniProt Q9Y490) | 0.0337 | -0.0224 |
| TONSL_Q96HA7_314_LQQQLEEAEGRDPQGAMVICEQLGDLFSK (UniProt Q96HA7) | -0.0344 | -0.187 |

— the supplement of paper PMC12067093, “Discovery and optimisation of a covalent ligand for TRIM25 and its application to targeted protein ubiquitination” (Chemical Science, 2025)
